Source: PMC9243396
No constants are given. Whether binding was seen depends on the method and setting. Binding seen in cells or lysates may run through a third protein. Some results given as binding are weak or reduced against the parent protein; the word gives no strength.

By UniProt entry, the sequences of proteins in these tests, tags left out.
UniProt P40692: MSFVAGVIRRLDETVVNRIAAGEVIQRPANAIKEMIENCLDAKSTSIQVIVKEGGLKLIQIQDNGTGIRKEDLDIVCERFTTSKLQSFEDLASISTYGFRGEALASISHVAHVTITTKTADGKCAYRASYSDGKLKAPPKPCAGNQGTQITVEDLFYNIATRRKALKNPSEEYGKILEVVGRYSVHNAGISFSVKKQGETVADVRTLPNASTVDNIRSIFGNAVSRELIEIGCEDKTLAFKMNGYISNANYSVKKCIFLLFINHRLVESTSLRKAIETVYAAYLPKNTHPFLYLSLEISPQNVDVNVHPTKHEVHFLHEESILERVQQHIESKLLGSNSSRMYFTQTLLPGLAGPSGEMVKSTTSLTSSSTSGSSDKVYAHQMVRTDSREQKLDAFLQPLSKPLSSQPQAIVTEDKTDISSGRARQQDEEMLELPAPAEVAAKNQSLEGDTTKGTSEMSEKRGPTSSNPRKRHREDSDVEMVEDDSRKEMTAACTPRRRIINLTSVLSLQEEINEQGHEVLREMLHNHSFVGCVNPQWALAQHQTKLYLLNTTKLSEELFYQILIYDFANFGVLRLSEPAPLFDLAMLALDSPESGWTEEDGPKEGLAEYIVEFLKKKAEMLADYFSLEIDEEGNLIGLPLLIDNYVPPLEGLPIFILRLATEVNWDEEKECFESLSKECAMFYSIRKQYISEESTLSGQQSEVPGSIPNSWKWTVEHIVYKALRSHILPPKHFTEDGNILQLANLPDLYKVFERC
UniProt P43246: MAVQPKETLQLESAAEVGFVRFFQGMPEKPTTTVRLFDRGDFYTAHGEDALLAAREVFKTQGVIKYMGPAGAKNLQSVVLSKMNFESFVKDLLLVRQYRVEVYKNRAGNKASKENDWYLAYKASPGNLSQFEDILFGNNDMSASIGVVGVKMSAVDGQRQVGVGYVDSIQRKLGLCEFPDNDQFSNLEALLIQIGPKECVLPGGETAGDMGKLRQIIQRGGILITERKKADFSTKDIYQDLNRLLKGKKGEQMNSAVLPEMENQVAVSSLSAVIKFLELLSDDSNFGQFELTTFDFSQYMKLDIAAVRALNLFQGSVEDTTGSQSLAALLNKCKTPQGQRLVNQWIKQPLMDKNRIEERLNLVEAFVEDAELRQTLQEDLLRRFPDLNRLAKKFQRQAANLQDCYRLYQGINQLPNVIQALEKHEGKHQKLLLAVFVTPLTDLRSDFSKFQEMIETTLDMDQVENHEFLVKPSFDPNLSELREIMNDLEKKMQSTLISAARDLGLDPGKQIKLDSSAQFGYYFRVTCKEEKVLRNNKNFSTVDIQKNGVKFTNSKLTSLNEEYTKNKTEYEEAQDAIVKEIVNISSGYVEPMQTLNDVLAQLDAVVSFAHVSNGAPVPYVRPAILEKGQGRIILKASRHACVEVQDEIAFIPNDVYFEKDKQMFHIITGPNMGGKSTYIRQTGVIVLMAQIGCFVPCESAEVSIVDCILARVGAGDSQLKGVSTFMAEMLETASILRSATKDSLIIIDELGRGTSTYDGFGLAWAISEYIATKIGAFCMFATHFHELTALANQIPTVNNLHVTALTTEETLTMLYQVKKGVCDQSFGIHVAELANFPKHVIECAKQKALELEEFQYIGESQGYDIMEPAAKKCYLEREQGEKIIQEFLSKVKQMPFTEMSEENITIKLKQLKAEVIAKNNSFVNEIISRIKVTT
UniProt Q149N8: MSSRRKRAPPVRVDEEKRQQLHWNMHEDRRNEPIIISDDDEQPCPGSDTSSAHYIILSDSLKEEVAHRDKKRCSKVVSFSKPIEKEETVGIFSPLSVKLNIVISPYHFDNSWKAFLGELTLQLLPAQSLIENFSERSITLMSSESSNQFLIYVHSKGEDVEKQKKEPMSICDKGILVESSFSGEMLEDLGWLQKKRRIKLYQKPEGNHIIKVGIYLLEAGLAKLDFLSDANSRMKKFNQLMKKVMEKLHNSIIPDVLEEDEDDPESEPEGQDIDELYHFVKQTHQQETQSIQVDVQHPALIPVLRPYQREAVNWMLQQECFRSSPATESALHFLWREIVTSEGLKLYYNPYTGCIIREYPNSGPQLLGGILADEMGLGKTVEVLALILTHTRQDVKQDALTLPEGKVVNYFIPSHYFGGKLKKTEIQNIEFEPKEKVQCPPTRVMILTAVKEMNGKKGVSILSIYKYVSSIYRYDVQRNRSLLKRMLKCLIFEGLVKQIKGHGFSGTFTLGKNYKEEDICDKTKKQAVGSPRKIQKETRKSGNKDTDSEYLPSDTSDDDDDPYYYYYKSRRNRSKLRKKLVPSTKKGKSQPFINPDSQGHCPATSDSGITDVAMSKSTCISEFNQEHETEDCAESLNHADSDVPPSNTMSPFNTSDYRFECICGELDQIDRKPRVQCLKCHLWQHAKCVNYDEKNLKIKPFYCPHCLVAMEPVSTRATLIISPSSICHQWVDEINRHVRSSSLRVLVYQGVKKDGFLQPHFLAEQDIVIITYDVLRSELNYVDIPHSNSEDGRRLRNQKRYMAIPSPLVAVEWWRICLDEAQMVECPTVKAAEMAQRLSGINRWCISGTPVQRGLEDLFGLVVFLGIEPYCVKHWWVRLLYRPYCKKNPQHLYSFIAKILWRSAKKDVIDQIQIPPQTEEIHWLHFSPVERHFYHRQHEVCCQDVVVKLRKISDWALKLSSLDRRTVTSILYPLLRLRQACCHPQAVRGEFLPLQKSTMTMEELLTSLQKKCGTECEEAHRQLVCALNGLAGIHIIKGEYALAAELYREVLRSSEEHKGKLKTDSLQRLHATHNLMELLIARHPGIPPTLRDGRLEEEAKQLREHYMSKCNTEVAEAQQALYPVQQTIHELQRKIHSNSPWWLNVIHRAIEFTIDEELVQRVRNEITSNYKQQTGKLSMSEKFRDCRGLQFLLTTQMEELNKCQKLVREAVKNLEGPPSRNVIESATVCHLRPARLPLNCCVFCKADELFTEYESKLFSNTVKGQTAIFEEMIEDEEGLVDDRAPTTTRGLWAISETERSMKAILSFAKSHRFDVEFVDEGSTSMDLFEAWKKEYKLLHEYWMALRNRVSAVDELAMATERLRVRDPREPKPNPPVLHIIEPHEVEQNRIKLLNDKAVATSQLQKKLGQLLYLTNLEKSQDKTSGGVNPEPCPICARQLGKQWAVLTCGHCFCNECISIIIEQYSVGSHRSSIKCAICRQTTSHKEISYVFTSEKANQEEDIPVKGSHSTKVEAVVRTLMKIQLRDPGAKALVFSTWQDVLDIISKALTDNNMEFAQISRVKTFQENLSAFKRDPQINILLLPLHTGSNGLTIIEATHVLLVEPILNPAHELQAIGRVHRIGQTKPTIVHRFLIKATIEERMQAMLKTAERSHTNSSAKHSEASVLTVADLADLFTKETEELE

Legend:
[1] = biological target: MLH1 (endogenous, HeLa) (human (endogenous in HeLa)) (UniProt P40692); test: co-IP; HeLa nuclear fractions, cells treated with DMSO or 30 μM MNNG; anti-MLH1 or anti-MSH2 on magnetic protein A/G beads, 4°C overnight, increasing salt washes; immunoblot for HLTF and SHPRH
[2] = biological target: MSH2 (endogenous, HeLa) (human (endogenous in HeLa)) (UniProt P43246); test: as above
[3] = biological target: MLH1 (endogenous, HeLa) (human (endogenous in HeLa)) (UniProt P40692); test: co-IP; HeLa synchronised by double thymidine block, released with DMSO or 0.2 µM MNNG; nuclear extract at the 6-h time point (S phase); anti-MLH1 beads; immunoblot for SHPRH
[4] = biological target: MLH1 (endogenous, HeLa) (human (endogenous in HeLa)) (UniProt P40692); test: condition: only cells in G1 or G2/M after release from the double thymidine block; co-IP; HeLa synchronised by double thymidine block, released with DMSO or 0.2 µM MNNG; nuclear extracts at time points in G1 or G2/M; anti-MLH1 beads; immunoblot for SHPRH

- binding [1]: binds
- binding [2]: no binding
- binding [3]: binds
- binding [4]: no binding
Substance: SNF2 Histone Linker PHD Ring Helicase (SHPRH) (endogenous, HeLa) (from UniProt Q149N8 1-1683)
